Assay results: the supplement of paper PMC10331698
± gives the standard deviation of the averaged measurements. Small differences around the control level are noise.

Experiments:
Assay in all cases: level (log10 ratio to DMSO vehicle control); higher = higher biomarker level / cell amount than vehicle control
[1] = compound: O=C(O)C(F)(F)OC(F)(F)C(F)(F)OC(F)(F)C(=O)O [Perfluoro-3,6-dioxaoctane-1,8-dioic acid]; details: 2200 nM; in DMSO
Method: (§1)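 BioMAP Diversity Plus panel of 12 human primary cell co-culture systems (3C, 4H, LPS, SAg, BT, BF4T, BE3C, CASM3C, HDF3CGF, KF3CT, MyoF, Mphg). Compounds were added 1 h before stimulation and left for 24 h (MyoF 48 h; BT 72 h for soluble read-outs or 6 d for IgG). Biomarkers were read by ELISA, cytotoxicity by SRB, PBMC viability and proliferation by Alamar Blue. Each well value was divided by the mean of 8 DMSO control wells on the same plate and log10 transformed; duplicate blinded samples were tested at 4 concentrations.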

[2] = compound: O=S(=O)(Cl)C(F)(F)C(F)(F)C(F)(F)C(F)(F)C(F)(F)C(F)(F)C(F)(F)C(F)(F)F [Perfluoro-1-octanesulfonyl chloride]; details: 2200 nM; in DMSO
Method: as §1

[3] = compound: O=C(O)C(F)(F)OC(F)(F)C(F)(F)OC(F)(F)C(F)(F)C(F)(F)C(F)(F)F [Perfluoro-3,6-dioxadecanoic acid]; details: 2200 nM; in DMSO
Method: as §1

[4] = compound: OCCC(F)(F)C(F)(F)C(F)(F)C(F)(F)C(F)(F)C(F)(F)C(F)(F)C(F)(F)F [8:2 Fluorotelomer alcohol]; details: 2200 nM; in DMSO
Method: as §1

Perfluorobutanoic acid = compound: O=C(O)C(F)(F)C(F)(F)C(F)(F)F [Perfluorobutanoic acid]; details: 2200 nM; in DMSO
Method: as §1

[5] = compound: C=C(C)C(=O)OCC(F)(F)C(F)(F)C(F)(F)F [2,2,3,3,4,4,4-Heptafluorobutyl methacrylate]; details: 2200 nM; in DMSO
Method: as §1

[6] = compound: FC(F)(F)C(F)(F)C(F)(F)C(F)(F)C(F)(F)C(F)(F)C(F)(F)I [1-Iodopentadecafluoroheptane]; details: in DMSO
Method: as §1

Perfluorooctanamide = compound: NC(=O)C(F)(F)C(F)(F)C(F)(F)C(F)(F)C(F)(F)C(F)(F)C(F)(F)F [Perfluorooctanamide]; details: 2200 nM; in DMSO
Method: as §1

[7] = compound: O=C(O)C(F)(F)C(F)(F)C(F)(F)C(F)(F)C(F)(F)C(F)(F)C(F)(F)C(F)F [9-H-Perfluorononanoic acid]; details: 2200 nM; in DMSO
Method: as §1

[8] = compound: O=C(O)C(F)(F)C(F)(F)OC(F)(F)F [Perfluoro-3-methoxypropanoic acid]; details: 2200 nM; in DMSO
Method: as §1

[9] = compound: FC(F)C(F)(F)COCC1CO1 [((2,2,3,3-Tetrafluoropropoxy)methyl)oxirane]; details: 2200 nM; in DMSO
Method: as §1

[10] = compound: C=CC(=O)OCC(F)(F)C(F)(F)C(F)(F)C(F)(F)COC(=O)C=C [1H,1H,6H,6H-Perfluorohexane-1,6-diol diacrylate]; details: 2200 nM; in DMSO
Method: as §1

[11] = compound: O=P(O)(O)CCC(F)(F)C(F)(F)C(F)(F)C(F)(F)C(F)(F)C(F)(F)C(F)(F)C(F)(F)F [((Perfluorooctyl)ethyl)phosphonic acid]; details: 2200 nM; in DMSO
Method: as §1

Perfluoropropanoic acid = compound: O=C(O)C(F)(F)C(F)(F)F [Perfluoropropanoic acid]; details: 2200 nM; in DMSO
Method: as §1

[12] = compound: O=C(O)C=CC(F)(C(F)(F)F)C(F)(F)F [3-(Perfluoroisopropyl)-2-propenoic acid]; details: in DMSO
Method: as §1

[13] = compound: OCC(F)(F)C(F)(F)C(F)(F)C(F)(F)C(F)(F)C(F)(F)C(F)(F)C(F)(F)C(F)(F)C(F)(F)C(F)(F)F [11:1 Fluorotelomer alcohol]; details: in DMSO
Method: as §1

[14] = compound: FC(F)(F)C(F)(F)C(F)(F)C(F)(F)C(F)(F)C(F)(F)C(F)(F)CCI [1-Iodo-1H,1H,2H,2H-perfluorononane]; details: in DMSO
Method: as §1

Perfluoroundecanoic acid = compound: O=C(O)C(F)(F)C(F)(F)C(F)(F)C(F)(F)C(F)(F)C(F)(F)C(F)(F)C(F)(F)C(F)(F)C(F)(F)F [Perfluoroundecanoic acid]; details: in DMSO
Method: as §1

Test System | level (log10) [1] | level (log10) [2] | level (log10) [3] | level (log10) [4] | level (log10) (Perfluorobutanoic acid) | level (log10) [5] | level (log10) ([6]; 740 nM) | level (log10) ([6]; 2200 nM) | level (log10) ([6]; 6700 nM) | level (log10) ([6]; 20000 nM) | level (log10) (Perfluorooctanamide) | level (log10) [7] | level (log10) [8] | level (log10) [9] | level (log10) [10] | level (log10) [11] | level (log10) (Perfluoropropanoic acid) | level (log10) ([12]; 2200 nM) | level (log10) ([12]; 6700 nM) | level (log10) ([12]; 20000 nM) | level (log10) ([12]; 60000 nM) | level (log10) ([13]; 370 nM) | level (log10) ([13]; 1100 nM) | level (log10) ([13]; 3300 nM) | level (log10) ([13]; 10000 nM) | level (log10) ([14]; 740 nM) | level (log10) ([14]; 2200 nM) | level (log10) ([14]; 6700 nM) | level (log10) ([14]; 20000 nM) | level (log10) (Perfluoroundecanoic acid; 740 nM) | level (log10) (Perfluoroundecanoic acid; 2200 nM)
CASM3C:CD142/Tissue Factor | 0.009 ± 0.045 | -0.0095 ± 0.049 | 0.0135 ± 0.021 | -0.012 ± 0.04 | -0.0205 ± 0.00071 | -0.001 ± 0.02 | 0.024 ± 0.072 | 0.004 ± 0.013 | -0.0185 ± 0.016 | -0.043 ± 0.024 | -0.0035 ± 0.032 | -0.0375 ± 0.022 | -0.0075 ± 0.05 | 0.023 ± 0.018 | -0.0075 ± 0.039 | 0.0045 ± 0.11 | 0.0305 ± 0.11 | 0.0015 ± 0.039 | -0.037 ± 0.028 | -0.0315 ± 0.053 | -0.01 ± 0.067 | 0.012 ± 0.0085 | -0.013 ± 0.02 | -0.0225 ± 0.016 | -0.038 ± 0.02 | -0.0165 ± 0.023 | 0.012 ± 0.031 | 0.0155 ± 0.049 | -0.055 ± 0.0028 | -0.034 ± 0.044 | -0.069 ± 0.011
BF4T:IL-1alpha | -0.014 ± 0.021 | 0.0095 ± 0.023 | 0.018 ± 0.013 | 0.0085 ± 0.021 | 0.013 ± 0.027 | 0.005 ± 0.0014 | 0.0095 ± 0.016 | 0.003 ± 0.0057 | -0.0035 ± 0.0035 | 0.003 ± 0.0014 | 0.015 ± 0.024 | 0.009 ± 0.021 | 0.0015 ± 0.0092 | 0.0075 ± 0.0064 | 0.033 ± 0.03 | 0.012 ± 0.0057 | -0.011 ± 0.0071 | 0.014 ± 0.023 | -0.002 ± 0.021 | 0.0065 ± 0.011 | 0.012 ± 0.0057 | -0.007 ± 0.027 | -0.016 ± 0.0014 | -0.0125 ± 0.013 | 0.0025 ± 0.0021 | 0.0255 ± 0.021 | -0.0105 ± 0.0092 | -0.011 ± 0.0042 | 0.033 ± 0.031 | -0.008 ± 0.0071 | -0.009 ± 0.0014
CASM3C:HLA-DR | 0.0055 ± 0.061 | -0.006 ± 0.045 | -0.003 ± 0.0071 | -0.002 ± 0.047 | -0.0015 ± 0.005 | 0.004 ± 0.037 | -0.012 ± 0.0085 | -0.028 ± 0.0042 | -0.0255 ± 0.023 | 0.008 ± 0.023 | 0.01 ± 0.0028 | -0.014 ± 0.023 | -0.0025 ± 0.054 | 0.019 ± 0.018 | 0.0715 ± 0.035 | 0.0315 ± 0.084 | -0.022 ± 0.027 | 0.016 ± 0.081 | -0.033 ± 0.011 | -0.0465 ± 0.022 | 0.0095 ± 0.044 | 0.014 ± 0.027 | 0.0075 ± 0.016 | 0.0015 ± 0.00071 | 0.0095 ± 0.0035 | -0.0115 ± 0.022 | -0.0155 ± 0.018 | 0.0055 ± 0.0064 | -0.007 ± 0.0071 | -0.0055 ± 0.019 | -0.029 ± 0.0028
